Reference: paper PMC9953967, “Discovery of Novel Bioactive Tanshinones and Carnosol Analogues against Breast Cancer” (Cancers, 2023)

Assays:
[1] = system: SUM149; assay: CellTiterGlo luminescent cell viability assay, SUM149; details: (EC50 BJ)/(EC50 SUM149)
[2] = system: MDA-MB231; assay: CellTiterGlo luminescent cell viability assay, MDA-MB231; details: (EC50 BJ)/(EC50 MDA-MB231)
[3] = system: T47D; assay: CellTiterGlo luminescent cell viability assay, T47D; details: (EC50 BJ)/(EC50 T47D)
[4] = system: non-tumorigenic cell line BJ; assay: CellTiterGlo cell viability assay, non-neoplastic cell line BJ; details: range over the four cancer cell lines
[5] = system: MCF07; assay: CellTiterGlo luminescent cell viability assay, MCF07; details: (EC50 BJ)/(EC50 MCF07)

| SMILES | Normalized Therapeutic index SUM149 [1] | Normalized Therapeutic index MDA-MB231 [2] | Normalized Therapeutic index T47D [3] | TI: Therapeutic index = (EC50 non-neoplastic cell line BJ)/(EC50 cancer cell line) [4] | Normalized Therapeutic index MCF07 [5] |
| --- | --- | --- | --- | --- | --- |
| CC(C)c1cc2c(c(O)c1O)[C@@]1(C)CCC[C@@](C)(CN3C(=O)c4ccccc4C3=O)[C@@H]1CC2 [Compound 10, 11,12-Dihydroxy-N,N-(phthaloyl)dehydroabietylamine] | 18 | 11 | 3.9 | 4–18 | 7 |
| CC(C)c1cc2c(cc1O)[C@@]1(C)CCC[C@@](C)(CN)[C@@H]1CC2 [Compound 2, 12-hydroxydehydroabietylamine] | 17 | 14 | 1.5 | 1–17 | 7.5 |
| COC(=O)[C@]1(C)CCC[C@]2(C)C3=C(C=C(C(C)C)C(=O)C3=O)CC[C@@H]12 [Compound 7, Methyl 11,12-Dioxo-abieta-8,13-dien-18-oate] | 43 | 14 | 4 | 4–44 | 6.7 |
| CC(C)c1cc2c(cc1O)[C@@]1(C)CCC[C@@](C)(CN3C(=O)c4ccccc4C3=O)[C@@H]1CC2 [Compound 6, 18-(phthalimid-2-yl)ferruginol] | 16 | 9 | 2.5 | 2–17 | 5.7 |
| CC(C)c1cc2c(cc1O)[C@@]1(C)CCCC(C)(C)[C@@H]1CC2 [Compound 1, ferruginol] | 1 | 6 | 0.5 | – | 2.6 |
| CC(C)C1=CC2=C(C(=O)C1=O)[C@@]1(C)CCC[C@@](C)(CN3C(=O)c4ccccc4C3=O)[C@@H]1CC2 [Compound 8, 11,12-Dioxo-N,N-(phthaloyl)dehydroabietylamine] | 23 | 12 | 1.9 | 1–24 | 15 |
| COC(=O)[C@]1(C)CCC[C@]2(C)c3c(cc(C(C)C)c(O)c3O)CC[C@@H]12 [Compound 9, Methyl 11,12-Dihydroxy-dehydroabietate] | 1.1 | 6 | 3.9 | – | 1.1 |
